Measurements reported in PubChem BioAssay AID1508588 (Peter MacCallum Cancer Centre, 2020)
Here is a random part of about 18,000 reagents tested. In the full data, 790 (4.4%) were called active. 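Calls rest on a combination of fold-change classes in drug and vehicle arms, not all shown here.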 Unmarked entries are inactive.

Assay: 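Genome-wide search for knock-downs that heighten vemurafenib action in melanoma cells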 (primary screen)
System: human WM266.4 melanoma cells (BRAF V600 mutant)
Knock-down reagent: siRNA pool against human genes, 40 nM
Time to read-out: 96 h from transfection to read-out
Challenge: vemurafenib 300 nM (about IC25), added 48 h after transfection, for 48 h; comparison arm got DMSO vehicle only
Detection: 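Cell gain (DAPI nuclei at end minus before drug, mean of two replicates) and medium lactate by absorbance per cell, both as ratio to non-targeting siRNA, also grouped into fold-change classes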
Direction: cell gain with vemurafenib: higher = more cell gain than with non-targeting siRNA; lactate per cell with vemurafenib: higher = more lactate made per cell
Hit rule: 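a knock-down counts as enhancing when its fold-change classes with vehicle and with vemurafenib, taken together, show a stronger drug effect on cell gain or lactate per cell; exact class pairs not stated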
Meaning of the calls: active = enhances vemurafenib effect; inactive = no enhancement seen

target gene	cell gain with vemurafenib	lactate per cell with vemurafenib
EFEMP2	0.33	1.07
IGF2BP1	0.38 (active)	0.46
HESX1	1.07	0.64
DRD5	0.31	2.83
CAPN5	0.66	0.55
CRYAB	0.54	1.12
COPS6	0.52	2.12
RBM15	0.66	-0.11
CEND1	0.48	1.27
METTL25B	1.28	1.19
TLNRD1	0.29	1.85
DDIT4L	0.33	1.77
TMEM39B	0.81	1
CTSW	0.52	0.92
DSG2	1	1.04
TUBGCP3	0.41	0.46
STK32A	0.93	0.94
WWP1	0.83	0.81
SPAG7	0.7	0.55
CCAR1	0.55 (active)	-0.05
OR2Y1	0.65	0.34

Quoted from the listing for reference:
target gene	cell gain with vemurafenib	lactate per cell with vemurafenib
DSG2	1	1.04
TUBGCP3	0.41	0.46
STK32A	0.93	0.94
WWP1	0.83	0.81
SPAG7	0.7	0.55

More records follow.
target gene	cell gain with vemurafenib	lactate per cell with vemurafenib
CD3G	0.79	0.56
SNRPD2	-0.09	1.58
ZNF226	0.71	0.8
LRP11	0.39	1.89
AMELY	0.7	0.97
DENND4A	0.7	0.99
MKRN3	0.99	0.66
ALYREF	0.62	0.78
GATA6	0.35	0.6
PROCR	0.61	0.5
TMEM266	0.78	0.92
DGCR6	0.43	1.12
C1D	0.3	0.97
